About 22,000 (6.9%) of roughly 320,000 compounds were called active. The shares of active, inactive and inconclusive entries below differ from those in the screen. Calls come from the whole dose curve; as a rule, active = well fitted inhibition curve with a large enough effect; inconclusive = small, poorly fitted or top-dose-only effect, or another doubt; inactive = no such curve, though single readings can be large or run the other way. Where the call is inconclusive, the potency comes from a doubtful curve fit.
Assay: Primary qHTS for delayed death inhibitors of the malarial parasite plastid, 96 hour incubation
Conditions: P. falciparum luciferase reporter growth; series mostly up to 28.7 µM; activity change, negative = inhibition: at the top concentration
Outline: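 Two parasite generations (96 h, 37 C, 5% CO2) of compound exposure in infected erythrocytes (0.05% parasitemia, 2% hematocrit). Luciferase-reporter P. falciparum; decreased luminescence indicates inhibited growth, aimed at apicoplast-acting delayed death.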
% is set by controls: 0 for no effect and ±100 for the full control effect; potency is the fitted concentration of half-maximal effect.

Structure (SMILES) | Potency | activity change, negative = inhibition
Cc1cc(C)c(S(=O)(=O)NCCC2CCCN2C)c(C)c1 (centres undefined) | inconclusive: 13.1 µM [inhibitor, single point] | –
CCn1c(SCC(=O)N2CCCCC2)nc2c(c1=O)SCC2 | inconclusive: 11.7 µM [inhibitor, partial curve] | –
COc1ccc(C(CNC(=O)c2ccc(S(=O)(=O)Nc3ccccc3C)cc2)N2CCOCC2)cc1 (centres undefined) | inconclusive: 18.5 µM [inhibitor, partial curve, poor fit] | –
O=C(Nc1nccs1)C1CCCN1S(=O)(=O)c1ccc(F)cc1 (centres undefined) | – | inactive: 11.2%
Cc1ccc(S(=O)(=O)C2(C(=O)NCCc3ccccc3)CC2)cc1 | – | inactive: -6.42%
COc1ccccc1-c1nnc(NC(=O)c2ccc(S(=O)(=O)N3CCCC3)cc2)o1 | inconclusive: 0.0033 µM [inhibitor, full curve, poor fit] | –
CCC(C)C1NC(=S)N(Cc2ccccc2)C1=O (centres undefined) | inconclusive: 0.131 µM [inhibitor, full curve, poor fit] | –
COc1ccc(C(=O)CN2CCN(c3ncccn3)CC2)cc1 | – | inactive: 14.9%
CCCN(CC(=O)Nc1ccccc1OC)C(=O)c1ccncc1 | – | inactive: 20.1%
C=CCC(O)(CC=C)CNC(=O)c1ccc(OC)c(OC2CCN(C(C)=O)CC2)c1 | inconclusive: 14.7 µM [inhibitor, single point] | –
CCCCCn1c2c(c(=N)c3ccccc31)CCC2 | inconclusive: 0.208 µM [inhibitor, full curve, poor fit] | –
O=C(NC(=S)N1CCCC1)c1ccc(Cl)cc1Cl | inconclusive: 18.5 µM [inhibitor, single point] | –
COc1ccc(CN(C)S(=O)(=O)c2nnc(NC(=O)c3ccc(C)cc3)s2)cc1OC | inconclusive: 10.4 µM [inhibitor, single point] | –
CCCCCCn1nc(C(=O)OCC(=O)c2c(N)n(C)c(=O)n(C)c2=O)c2ccccc2c1=O | active: 13.1 µM | –
N#CC(c1ccccn1)(c1ncc(C(F)(F)F)cc1Cl)N1CCOCC1 (centres undefined) | inconclusive: 18.5 µM [inhibitor, single point] | –
CCOc1ncccc1C(=O)Nc1ccc(OC)c(S(=O)(=O)N2CCCCC2)c1 | – | inactive: -29.4%
Cc1cccc(C)c1NC(=O)CNC(=O)c1cncc(Br)c1 | – | inactive: 44.3%
Cc1ccc(S(=O)(=O)N[C@H](C(=O)Oc2ccc3c(C(F)(F)F)cc(=O)oc3c2)c2ccccc2)cc1 | inconclusive: 3.7 µM [inhibitor, partial curve, poor fit] | –
CCN1CCC2(CC1)C(C#N)=C(N)Oc1c2sc2nc(C)cc(C)c12 | inconclusive: 11.7 µM [inhibitor, single point] | –
CC(CC(=O)C1C(C)C=CCC1(C)C)NNC(N)=O (centres undefined) | inconclusive: 9.28 µM [inhibitor, single point] | –
O=C(CCN1CCN(Cc2ccccc2)CC1)Nc1ccc(OCc2ccccc2)cc1 | inconclusive: 18.5 µM [inhibitor, single point] | –
O=[N+]([O-])c1cc(C(F)(F)F)ccc1Sc1ccc2ccccc2n1 | – | inactive: 81.2%

Structure (SMILES) | Potency | activity change, negative = inhibition
CC(=O)Oc1cccc(N2C(=O)C3CC=C(Cl)CC3C2=O)c1 (centres undefined) | inconclusive: 8.28 µM [inhibitor, partial curve, poor fit] | –
CSc1cccc(NC(=S)N(CCCN2CCCC(C)C2)Cc2cccs2)c1 (centres undefined) | – | inactive: 39.4%
Cc1noc(C)c1COc1ccc(C(=O)N2CCCC(C(N)=O)C2)cc1 (centres undefined) | – | inactive: 29.5%
COc1ccc(CNC(=O)CN(C(=O)Cn2nnc(-c3ccccc3F)n2)c2ccc(C)cc2)cc1 | inconclusive: 18.5 µM [inhibitor, single point] | –
CC(C)c1ccc2oc(=O)cc(CN3CCCCC3)c2c1 | inconclusive: 11.7 µM [inhibitor, partial curve] | –
COc1ccc(-n2c(N)c(C(=O)NCC3CCCO3)c3nc4ccccc4nc32)c(OC)c1 (centres undefined) | inconclusive: 18.5 µM [inhibitor, single point] | –
Cn1cc(Br)c(C(=O)Nc2sc3c(c2C(N)=O)CCCC3)n1 | active: 4.15 µM | –
Cc1ccc(C2=NN(C(=S)Nc3ccccc3)C(c3ccco3)C2)cc1 (centres undefined) | active: 9.28 µM | –
CCn1ccnc1CN(C)C(=O)CC1C(=O)NCCN1Cc1c(F)cccc1Cl (centres undefined) | active: 10.4 µM | –
COc1ccc2nc(C)cc(NCCN3CCOCC3)c2c1 | inconclusive: 18.5 µM [inhibitor, single point] | –
CC1CCc2nn(CC(=O)NCCN3CCOCC3)cc2C1 (centres undefined) | inconclusive: 14.7 µM [inhibitor, partial curve, poor fit] | –
CCOC(=O)C1(CCc2ccccc2)CCN(CC(O)CO)CC1 (centres undefined) | inconclusive: 2.94 µM [inhibitor, partial curve, poor fit] | –
CCN(CC)CCN1C(=O)C(=O)/C(=C(/O)c2ccc(C)cc2)C1c1ccncc1 (centres undefined) | inconclusive: 0.233 µM [inhibitor, partial curve, poor fit] | –
O=C(Nc1ccccc1F)n1ncc2cc(Cl)ccc21 | – | inactive: 36.5%
CCN(CC)S(=O)(=O)c1cccc(C(=O)N/N=C/c2ccc([N+](=O)[O-])o2)c1 | active: 4.15 µM | –
COc1ccccc1NC(=O)CCN1CCN(c2ccc(Cl)cc2)CC1 | inconclusive: 18.5 µM [inhibitor, single point] | –
Cc1cccc(C(=O)OCC(=O)N(C)CC(=O)Nc2ccc(Cl)c(C(F)(F)F)c2)c1 | inconclusive: 14.7 µM [inhibitor, single point] | –
O=C(Cn1c(NCCCO)nc2ccccc21)c1ccc(Cl)cc1Cl | active: 9.28 µM | –
Cc1onc(-c2ccccc2)c1C(=O)N1CCCSC1=Nc1ccccc1 | inconclusive: 11.7 µM [inhibitor, partial curve, poor fit] | –
CN(C(=O)c1ccccc1C(=O)OCC(=O)c1ccc(F)cc1)c1ccccc1 | inconclusive: 13.1 µM [inhibitor, partial curve, poor fit] | –
O=C(NCc1ccc2c(c1)OCO2)C1CCCN1C(=O)Nc1cccc(Cl)c1 (centres undefined) | inconclusive: 4.15 µM [inhibitor, single point] | –
CCCc1cc(=O)[nH]c2nnc(SCC(=O)Nc3cccc(NC(C)=O)c3)n12 | inconclusive: 5.86 µM [inhibitor, partial curve, poor fit] | –

Reference: PubChem BioAssay AID504834 (National Center for Advancing Translational Sciences (NCATS), 2011)
